Source: PMC5405935, “Role of Kif15 and its novel mitotic partner KBP in K-fiber dynamics and chromosome alignment” (PLoS ONE, 2017)
Results are given in words; binding and its absence hold for the method and conditions named. In cells and extracts the contact can be indirect. A yes stands for co-enrichment or nearness to the bait. Other partners may have been found. Where a sequence is shown, tags or fusion partners need not be part of it.

Molecular target: T1, Flag-tagged Kif15 (full length, residues 1-1388) (human), Q9NS87
T1 chain: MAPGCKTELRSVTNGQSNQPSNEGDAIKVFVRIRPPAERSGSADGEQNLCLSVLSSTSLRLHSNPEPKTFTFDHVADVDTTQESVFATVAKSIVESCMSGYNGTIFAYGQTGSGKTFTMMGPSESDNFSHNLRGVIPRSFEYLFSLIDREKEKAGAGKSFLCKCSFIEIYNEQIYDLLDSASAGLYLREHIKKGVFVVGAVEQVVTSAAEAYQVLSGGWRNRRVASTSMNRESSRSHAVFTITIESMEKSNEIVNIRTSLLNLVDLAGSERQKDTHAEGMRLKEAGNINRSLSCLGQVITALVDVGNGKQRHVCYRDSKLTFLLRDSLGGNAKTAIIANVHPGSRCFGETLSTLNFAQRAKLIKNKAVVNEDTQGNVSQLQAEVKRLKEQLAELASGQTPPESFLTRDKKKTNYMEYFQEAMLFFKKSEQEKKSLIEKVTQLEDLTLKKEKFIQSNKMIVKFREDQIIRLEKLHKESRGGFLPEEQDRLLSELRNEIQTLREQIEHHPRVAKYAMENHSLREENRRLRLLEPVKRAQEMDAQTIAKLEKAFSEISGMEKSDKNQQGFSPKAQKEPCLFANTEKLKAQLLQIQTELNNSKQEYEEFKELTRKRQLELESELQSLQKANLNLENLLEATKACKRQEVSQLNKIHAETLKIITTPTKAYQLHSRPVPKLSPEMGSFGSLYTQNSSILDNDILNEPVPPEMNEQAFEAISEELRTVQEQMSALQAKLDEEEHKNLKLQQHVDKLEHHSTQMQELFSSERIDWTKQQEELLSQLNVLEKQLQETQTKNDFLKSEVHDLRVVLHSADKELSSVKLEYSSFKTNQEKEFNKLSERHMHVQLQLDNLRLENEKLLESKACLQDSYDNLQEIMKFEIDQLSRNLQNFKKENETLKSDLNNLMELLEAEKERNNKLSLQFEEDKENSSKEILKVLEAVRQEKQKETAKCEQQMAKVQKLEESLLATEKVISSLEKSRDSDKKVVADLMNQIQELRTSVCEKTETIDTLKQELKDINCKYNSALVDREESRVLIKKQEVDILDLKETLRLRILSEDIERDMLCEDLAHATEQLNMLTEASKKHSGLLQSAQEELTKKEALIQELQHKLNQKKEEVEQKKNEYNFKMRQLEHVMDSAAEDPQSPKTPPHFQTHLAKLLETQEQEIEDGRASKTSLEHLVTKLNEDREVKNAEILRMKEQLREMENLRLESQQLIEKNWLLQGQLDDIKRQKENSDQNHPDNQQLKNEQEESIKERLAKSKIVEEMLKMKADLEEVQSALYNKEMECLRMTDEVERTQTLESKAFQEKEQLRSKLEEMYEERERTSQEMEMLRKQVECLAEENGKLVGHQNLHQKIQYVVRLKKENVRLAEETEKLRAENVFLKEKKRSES
Assay: affinity purification with mass spectrometry; SILAC; anti-Flag M2 affinity gel pull-down from combined lysates of HEK293T and stable Flag-Kif15 HEK293T cells synchronized in mitosis; elution with Flag peptide; three independent experiments
Conditions: remark: other sources report otherwise

binding: binds
B1: KBP-His (full-length His-tagged KBP) (natural protein, human, UniProt Q96EK5 1-621, looked up)
chain: MANVPWAEVCEKFQAALALSRVELHKNPEKEPYKSKYSARALLEEVKALLGPAPEDEDERPEAEDGPGAGDHALGLPAEVVEPEGPVAQRAVRLAVIEFHLGVNHIDTEELSAGEEHLVKCLRLLRRYRLSHDCISLCIQAQNNLGILWSEREEIETAQAYLESSEALYNQYMKEVGSPPLDPTERFLPEEEKLTEQERSKRFEKVYTHNLYYLAQVYQHLEMFEKAAHYCHSTLKRQLEHNAYHPIEWAINAATLSQFYINKLCFMEARHCLSAANVIFGQTGKISATEDTPEAEGEVPELYHQRKGEIARCWIKYCLTLMQNAQLSMQDNIGELDLDKQSELRALRKKELDEEESIRKKAVQFGTGELCDAISAVEEKVSYLRPLDFEEARELFLLGQHYVFEAKEFFQIDGYVTDHIEVVQDHSALFKVLAFFETDMERRCKMHKRRIAMLEPLTVDLNPQYYLLVNRQIQFEIAHAYYDMMDLKVAIADRLRDPDSHIVKKINNLNKSALKYYQLFLDSLRDPNKVFPEHIGEDVLRPAMLAKFRVARLYGKIITADPKKELENLATSLEHYKFIVDYCEKHPEAAQEIEVELELSKEMVSLLPTKMERFRTKMALT
notes: also called recombinant His-tagged KBP; source: E. coli BL21 (DE3), purified (Ni-NTA)
